Laboratory results reported in article doi:10.1101/2023.08.20.554038.
Results are given in words; binding and its absence hold for the method and conditions named. In cells and extracts the contact can be indirect. Some binding calls cover weakened binding; strength is not graded here.

Amino acid sequences for entries named in this document (tags omitted).
UniProt P12367: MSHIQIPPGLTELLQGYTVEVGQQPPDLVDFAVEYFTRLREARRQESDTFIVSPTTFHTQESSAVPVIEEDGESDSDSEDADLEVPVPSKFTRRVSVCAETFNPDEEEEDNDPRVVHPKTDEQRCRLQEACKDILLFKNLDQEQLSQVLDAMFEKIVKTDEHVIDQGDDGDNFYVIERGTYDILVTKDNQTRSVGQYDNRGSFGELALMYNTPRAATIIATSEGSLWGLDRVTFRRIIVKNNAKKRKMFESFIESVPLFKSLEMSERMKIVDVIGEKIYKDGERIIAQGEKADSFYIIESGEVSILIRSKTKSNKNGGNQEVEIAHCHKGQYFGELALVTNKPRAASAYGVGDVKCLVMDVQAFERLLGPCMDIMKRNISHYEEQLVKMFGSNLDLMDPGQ
UniProt Q9Y490: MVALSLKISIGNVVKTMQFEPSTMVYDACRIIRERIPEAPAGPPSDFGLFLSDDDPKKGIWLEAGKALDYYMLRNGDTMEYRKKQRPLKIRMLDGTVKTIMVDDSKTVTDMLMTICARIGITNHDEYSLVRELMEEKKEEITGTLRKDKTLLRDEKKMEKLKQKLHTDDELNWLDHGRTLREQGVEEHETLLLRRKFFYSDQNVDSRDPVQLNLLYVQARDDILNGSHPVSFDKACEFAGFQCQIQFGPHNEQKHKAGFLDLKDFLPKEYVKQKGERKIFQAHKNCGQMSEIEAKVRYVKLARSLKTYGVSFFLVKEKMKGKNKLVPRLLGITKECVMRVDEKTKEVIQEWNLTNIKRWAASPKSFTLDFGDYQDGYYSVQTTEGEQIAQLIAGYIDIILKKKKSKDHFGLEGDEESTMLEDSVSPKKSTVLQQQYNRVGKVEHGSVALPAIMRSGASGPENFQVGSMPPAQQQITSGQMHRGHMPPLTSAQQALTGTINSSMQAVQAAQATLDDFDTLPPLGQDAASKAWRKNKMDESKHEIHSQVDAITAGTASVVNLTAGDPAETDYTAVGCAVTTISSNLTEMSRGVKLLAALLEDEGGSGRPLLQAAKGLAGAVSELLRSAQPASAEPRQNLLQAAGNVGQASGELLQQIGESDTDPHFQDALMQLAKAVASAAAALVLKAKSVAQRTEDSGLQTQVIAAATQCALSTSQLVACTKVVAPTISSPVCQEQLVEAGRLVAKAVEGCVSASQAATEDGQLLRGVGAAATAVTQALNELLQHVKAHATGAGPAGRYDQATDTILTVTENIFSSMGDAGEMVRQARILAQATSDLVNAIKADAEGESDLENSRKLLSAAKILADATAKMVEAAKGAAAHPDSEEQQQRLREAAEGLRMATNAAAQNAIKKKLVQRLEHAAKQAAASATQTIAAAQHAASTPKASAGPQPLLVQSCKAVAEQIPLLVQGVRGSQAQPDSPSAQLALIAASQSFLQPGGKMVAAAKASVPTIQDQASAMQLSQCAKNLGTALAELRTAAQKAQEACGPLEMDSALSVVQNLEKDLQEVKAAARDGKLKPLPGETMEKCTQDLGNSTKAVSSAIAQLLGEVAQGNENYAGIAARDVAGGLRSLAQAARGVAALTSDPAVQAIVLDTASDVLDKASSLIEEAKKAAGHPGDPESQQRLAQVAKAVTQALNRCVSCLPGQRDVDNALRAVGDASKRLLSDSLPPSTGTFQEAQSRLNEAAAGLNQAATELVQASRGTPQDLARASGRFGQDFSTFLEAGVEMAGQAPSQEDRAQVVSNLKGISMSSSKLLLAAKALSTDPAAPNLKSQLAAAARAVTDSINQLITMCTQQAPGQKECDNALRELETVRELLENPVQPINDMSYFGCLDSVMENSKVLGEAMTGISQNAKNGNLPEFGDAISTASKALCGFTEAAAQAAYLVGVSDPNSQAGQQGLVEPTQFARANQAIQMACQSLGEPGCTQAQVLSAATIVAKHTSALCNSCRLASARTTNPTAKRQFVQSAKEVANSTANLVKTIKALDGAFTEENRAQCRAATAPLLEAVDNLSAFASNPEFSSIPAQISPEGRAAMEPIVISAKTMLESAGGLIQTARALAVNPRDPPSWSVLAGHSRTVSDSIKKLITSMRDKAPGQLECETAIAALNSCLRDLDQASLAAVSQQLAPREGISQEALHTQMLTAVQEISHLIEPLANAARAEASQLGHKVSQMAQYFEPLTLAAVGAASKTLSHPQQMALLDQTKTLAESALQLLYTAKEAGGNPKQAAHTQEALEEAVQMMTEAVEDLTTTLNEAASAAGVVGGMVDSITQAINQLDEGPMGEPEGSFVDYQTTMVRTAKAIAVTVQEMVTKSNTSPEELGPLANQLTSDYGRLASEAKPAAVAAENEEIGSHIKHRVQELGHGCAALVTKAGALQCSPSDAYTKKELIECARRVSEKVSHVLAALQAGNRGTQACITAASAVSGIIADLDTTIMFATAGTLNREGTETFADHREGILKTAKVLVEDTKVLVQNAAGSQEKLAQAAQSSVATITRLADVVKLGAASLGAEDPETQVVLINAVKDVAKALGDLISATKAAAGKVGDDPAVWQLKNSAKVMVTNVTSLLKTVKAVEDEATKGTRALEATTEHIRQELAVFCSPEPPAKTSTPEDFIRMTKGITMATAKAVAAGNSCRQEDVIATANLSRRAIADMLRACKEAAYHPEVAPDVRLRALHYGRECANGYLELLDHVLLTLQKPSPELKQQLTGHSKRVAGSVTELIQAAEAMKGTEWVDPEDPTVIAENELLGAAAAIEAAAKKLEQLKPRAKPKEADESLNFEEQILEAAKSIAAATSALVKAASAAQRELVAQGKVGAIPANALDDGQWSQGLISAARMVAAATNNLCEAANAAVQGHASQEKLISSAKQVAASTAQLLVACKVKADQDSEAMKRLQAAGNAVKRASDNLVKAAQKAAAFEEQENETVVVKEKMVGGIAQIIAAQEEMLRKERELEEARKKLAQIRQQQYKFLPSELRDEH
UniProt P24588: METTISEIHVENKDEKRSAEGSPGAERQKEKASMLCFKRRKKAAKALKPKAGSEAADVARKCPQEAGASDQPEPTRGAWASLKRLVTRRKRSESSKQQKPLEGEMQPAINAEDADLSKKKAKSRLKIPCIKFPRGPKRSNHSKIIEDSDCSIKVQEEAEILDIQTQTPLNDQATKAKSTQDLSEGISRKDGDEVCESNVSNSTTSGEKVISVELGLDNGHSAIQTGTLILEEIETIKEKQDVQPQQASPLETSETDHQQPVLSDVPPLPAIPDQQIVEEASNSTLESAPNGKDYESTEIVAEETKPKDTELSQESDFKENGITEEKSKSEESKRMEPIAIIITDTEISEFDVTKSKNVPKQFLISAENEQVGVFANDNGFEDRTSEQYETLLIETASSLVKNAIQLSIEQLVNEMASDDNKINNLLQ

Target: V5 epitope-tagged murine PKA RIIα fused to miniTurbo biotin ligase (V5-RIIα-mTb), wild type (mouse) (UniProt P12367)
Experiment: co-IP

Substance | binding
talin1 (from UniProt Q9Y490 1-2541) | binds
AKAP79 (from UniProt P24588 1-427) | binds
